Experimental data: the supplement of paper PMC12823440, “Inhibitors supercharge kinase turnover through native proteolytic circuits” (Nature, 2025)
Where a name gives a salt, the structure may show the parent alone. This is one part of the list. The calls rarely recur for the same compound in another form.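 Kinases, fused to nanoluciferase, were expressed in K562 cells; luminescence was measured every 4 h from 2 to 18 h as percent of control (DMSO = 100%, positive control = 0%). A time point is decreased if signal falls significantly (2 sigma). Hits were called by the authors by a rule that is not shown; the count of time points alone does not decide it.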

The chains behind the UniProt entries cited, without tags or fusion partners. Where a name states a change or a piece, a line headed by the entry shows the natural chain unless it says otherwise.
UniProt P00519, whole entry: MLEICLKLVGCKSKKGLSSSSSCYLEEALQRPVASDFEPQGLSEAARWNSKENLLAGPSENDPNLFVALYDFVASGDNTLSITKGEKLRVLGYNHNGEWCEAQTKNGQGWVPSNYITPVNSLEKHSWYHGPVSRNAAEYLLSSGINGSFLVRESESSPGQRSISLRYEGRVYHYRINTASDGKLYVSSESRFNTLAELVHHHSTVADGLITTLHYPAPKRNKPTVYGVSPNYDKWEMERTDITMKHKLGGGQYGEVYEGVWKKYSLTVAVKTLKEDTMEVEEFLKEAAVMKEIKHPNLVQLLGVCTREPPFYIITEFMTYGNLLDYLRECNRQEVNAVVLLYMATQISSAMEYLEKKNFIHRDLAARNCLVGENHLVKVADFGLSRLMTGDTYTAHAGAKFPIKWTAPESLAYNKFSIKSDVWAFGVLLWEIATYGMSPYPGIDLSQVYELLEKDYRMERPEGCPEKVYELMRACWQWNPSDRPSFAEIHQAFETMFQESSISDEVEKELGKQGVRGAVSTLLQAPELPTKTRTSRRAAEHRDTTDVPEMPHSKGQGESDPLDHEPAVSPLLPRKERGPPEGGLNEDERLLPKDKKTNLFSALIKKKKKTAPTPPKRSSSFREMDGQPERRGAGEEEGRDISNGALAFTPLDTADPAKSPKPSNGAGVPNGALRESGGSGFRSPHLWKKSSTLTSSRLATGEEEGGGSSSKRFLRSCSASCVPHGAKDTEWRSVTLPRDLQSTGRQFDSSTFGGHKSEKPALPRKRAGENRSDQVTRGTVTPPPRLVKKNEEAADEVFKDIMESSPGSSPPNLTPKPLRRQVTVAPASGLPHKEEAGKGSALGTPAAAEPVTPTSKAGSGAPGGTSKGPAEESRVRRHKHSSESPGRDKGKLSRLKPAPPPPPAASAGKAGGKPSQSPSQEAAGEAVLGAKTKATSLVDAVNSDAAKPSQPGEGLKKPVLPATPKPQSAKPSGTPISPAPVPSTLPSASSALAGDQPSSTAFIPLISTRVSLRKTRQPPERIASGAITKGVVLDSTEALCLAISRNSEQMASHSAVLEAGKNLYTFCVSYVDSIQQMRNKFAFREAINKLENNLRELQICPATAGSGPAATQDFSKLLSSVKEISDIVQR
UniProt Q9UM73: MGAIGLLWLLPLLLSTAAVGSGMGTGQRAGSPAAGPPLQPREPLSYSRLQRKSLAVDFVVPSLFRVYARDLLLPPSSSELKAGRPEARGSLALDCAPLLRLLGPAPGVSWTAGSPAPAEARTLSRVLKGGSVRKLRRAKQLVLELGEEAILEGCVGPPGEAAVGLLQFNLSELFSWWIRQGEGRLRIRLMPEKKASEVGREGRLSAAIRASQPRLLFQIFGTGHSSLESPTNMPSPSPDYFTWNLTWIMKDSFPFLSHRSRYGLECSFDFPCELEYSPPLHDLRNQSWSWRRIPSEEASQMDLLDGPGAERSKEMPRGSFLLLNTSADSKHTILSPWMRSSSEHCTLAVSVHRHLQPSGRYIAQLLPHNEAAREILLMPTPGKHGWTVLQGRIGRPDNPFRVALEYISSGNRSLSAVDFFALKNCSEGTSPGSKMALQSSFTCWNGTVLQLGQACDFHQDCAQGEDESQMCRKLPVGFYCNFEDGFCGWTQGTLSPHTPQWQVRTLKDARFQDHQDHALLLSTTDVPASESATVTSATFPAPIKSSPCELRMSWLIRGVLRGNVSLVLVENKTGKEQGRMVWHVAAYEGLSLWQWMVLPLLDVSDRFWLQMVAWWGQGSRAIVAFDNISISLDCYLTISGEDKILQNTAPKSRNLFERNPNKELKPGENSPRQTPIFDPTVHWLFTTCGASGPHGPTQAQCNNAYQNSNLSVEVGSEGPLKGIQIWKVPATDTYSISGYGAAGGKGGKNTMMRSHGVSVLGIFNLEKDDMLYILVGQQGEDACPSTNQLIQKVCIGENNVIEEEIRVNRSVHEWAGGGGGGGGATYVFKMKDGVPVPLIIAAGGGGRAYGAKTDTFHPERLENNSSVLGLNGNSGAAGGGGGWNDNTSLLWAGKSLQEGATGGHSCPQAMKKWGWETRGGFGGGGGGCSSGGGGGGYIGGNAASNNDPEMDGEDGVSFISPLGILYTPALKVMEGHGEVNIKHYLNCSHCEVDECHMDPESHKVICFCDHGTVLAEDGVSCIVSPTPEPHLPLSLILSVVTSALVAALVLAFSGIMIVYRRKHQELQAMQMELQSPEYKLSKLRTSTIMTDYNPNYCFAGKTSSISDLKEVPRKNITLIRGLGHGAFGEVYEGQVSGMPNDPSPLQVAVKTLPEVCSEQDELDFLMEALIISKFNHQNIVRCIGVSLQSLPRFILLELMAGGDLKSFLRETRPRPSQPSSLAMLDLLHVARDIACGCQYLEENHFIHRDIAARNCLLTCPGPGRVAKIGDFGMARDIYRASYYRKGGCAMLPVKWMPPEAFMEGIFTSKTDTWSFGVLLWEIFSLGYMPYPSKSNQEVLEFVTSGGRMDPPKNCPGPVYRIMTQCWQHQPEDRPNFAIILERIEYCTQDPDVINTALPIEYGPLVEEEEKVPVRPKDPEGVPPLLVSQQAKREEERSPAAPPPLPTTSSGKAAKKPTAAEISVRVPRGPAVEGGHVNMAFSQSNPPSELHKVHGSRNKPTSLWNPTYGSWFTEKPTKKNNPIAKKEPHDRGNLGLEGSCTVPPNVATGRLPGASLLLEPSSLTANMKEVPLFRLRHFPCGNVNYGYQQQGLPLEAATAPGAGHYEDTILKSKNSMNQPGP
UniProt P10398: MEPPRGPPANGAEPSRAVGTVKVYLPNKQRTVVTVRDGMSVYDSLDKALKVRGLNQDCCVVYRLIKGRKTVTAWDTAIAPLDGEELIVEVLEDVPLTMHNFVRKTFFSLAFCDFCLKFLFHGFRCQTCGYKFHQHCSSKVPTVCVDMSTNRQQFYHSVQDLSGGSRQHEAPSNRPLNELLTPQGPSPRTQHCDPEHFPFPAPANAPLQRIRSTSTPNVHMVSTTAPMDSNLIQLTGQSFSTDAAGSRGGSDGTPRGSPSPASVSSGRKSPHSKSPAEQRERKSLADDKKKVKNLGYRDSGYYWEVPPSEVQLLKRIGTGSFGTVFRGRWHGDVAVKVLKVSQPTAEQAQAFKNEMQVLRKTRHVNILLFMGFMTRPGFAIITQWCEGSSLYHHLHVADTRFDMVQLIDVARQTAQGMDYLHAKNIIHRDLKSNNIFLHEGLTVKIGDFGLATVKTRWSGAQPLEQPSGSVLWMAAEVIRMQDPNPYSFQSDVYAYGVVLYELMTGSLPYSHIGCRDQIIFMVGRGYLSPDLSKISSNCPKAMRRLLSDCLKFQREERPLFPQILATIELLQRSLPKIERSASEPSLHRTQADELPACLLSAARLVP
UniProt O14965: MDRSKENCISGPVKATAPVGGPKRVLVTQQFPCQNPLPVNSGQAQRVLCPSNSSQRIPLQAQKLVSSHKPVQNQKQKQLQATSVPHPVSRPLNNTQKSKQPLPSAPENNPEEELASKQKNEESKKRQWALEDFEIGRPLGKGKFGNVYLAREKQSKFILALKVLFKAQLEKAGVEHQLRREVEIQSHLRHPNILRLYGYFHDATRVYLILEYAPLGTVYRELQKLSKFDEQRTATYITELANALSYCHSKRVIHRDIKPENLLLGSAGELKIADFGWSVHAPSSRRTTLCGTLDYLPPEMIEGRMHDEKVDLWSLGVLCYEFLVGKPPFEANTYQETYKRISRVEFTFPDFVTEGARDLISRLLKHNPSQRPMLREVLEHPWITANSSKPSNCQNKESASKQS
UniProt Q96GD4, whole entry: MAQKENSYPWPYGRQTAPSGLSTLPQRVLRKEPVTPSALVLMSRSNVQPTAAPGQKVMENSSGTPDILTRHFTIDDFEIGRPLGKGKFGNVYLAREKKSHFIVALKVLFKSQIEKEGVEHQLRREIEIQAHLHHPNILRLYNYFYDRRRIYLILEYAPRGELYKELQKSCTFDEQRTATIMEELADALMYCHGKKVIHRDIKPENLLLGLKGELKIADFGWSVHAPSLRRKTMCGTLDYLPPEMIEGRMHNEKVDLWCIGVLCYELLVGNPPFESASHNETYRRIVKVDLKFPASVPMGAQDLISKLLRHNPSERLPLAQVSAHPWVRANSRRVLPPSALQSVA
UniProt Q9UQB9: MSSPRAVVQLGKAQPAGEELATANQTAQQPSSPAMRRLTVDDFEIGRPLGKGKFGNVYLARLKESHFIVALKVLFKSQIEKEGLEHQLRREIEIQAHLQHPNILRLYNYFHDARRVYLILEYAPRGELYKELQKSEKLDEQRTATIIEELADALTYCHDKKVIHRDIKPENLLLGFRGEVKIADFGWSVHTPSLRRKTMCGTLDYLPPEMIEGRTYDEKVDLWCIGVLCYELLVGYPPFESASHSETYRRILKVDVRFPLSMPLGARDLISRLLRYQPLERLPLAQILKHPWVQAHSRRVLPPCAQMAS
UniProt P51813: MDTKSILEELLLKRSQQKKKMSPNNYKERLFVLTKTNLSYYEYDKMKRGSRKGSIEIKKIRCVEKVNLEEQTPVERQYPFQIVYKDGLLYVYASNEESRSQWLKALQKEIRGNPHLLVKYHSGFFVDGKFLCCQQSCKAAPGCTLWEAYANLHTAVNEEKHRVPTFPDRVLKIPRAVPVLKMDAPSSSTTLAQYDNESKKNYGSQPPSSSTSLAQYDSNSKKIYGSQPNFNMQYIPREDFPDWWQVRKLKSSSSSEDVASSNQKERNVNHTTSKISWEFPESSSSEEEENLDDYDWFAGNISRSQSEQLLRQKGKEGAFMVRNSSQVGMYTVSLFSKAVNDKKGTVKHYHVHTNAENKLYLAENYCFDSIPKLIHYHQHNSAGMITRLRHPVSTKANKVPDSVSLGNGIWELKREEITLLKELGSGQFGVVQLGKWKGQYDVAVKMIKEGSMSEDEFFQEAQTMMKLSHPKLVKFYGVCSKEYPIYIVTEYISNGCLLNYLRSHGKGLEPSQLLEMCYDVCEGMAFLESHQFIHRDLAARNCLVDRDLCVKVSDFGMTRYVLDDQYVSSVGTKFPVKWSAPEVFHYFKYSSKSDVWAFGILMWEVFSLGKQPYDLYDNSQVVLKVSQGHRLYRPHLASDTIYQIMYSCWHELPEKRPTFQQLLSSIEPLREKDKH
UniProt Q9UQM7, whole entry: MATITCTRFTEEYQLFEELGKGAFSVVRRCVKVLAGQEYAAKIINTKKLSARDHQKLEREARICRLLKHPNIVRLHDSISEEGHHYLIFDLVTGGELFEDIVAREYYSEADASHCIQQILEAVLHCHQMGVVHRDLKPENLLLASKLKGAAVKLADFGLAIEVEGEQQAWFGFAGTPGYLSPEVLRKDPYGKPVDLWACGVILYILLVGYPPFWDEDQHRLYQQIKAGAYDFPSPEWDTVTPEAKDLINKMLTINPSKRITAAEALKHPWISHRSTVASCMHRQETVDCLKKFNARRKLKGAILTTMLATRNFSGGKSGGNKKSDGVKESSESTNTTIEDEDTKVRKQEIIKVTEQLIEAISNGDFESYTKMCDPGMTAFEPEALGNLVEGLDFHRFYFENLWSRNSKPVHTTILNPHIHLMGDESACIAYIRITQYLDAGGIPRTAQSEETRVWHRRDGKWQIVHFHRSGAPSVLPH
UniProt Q13555: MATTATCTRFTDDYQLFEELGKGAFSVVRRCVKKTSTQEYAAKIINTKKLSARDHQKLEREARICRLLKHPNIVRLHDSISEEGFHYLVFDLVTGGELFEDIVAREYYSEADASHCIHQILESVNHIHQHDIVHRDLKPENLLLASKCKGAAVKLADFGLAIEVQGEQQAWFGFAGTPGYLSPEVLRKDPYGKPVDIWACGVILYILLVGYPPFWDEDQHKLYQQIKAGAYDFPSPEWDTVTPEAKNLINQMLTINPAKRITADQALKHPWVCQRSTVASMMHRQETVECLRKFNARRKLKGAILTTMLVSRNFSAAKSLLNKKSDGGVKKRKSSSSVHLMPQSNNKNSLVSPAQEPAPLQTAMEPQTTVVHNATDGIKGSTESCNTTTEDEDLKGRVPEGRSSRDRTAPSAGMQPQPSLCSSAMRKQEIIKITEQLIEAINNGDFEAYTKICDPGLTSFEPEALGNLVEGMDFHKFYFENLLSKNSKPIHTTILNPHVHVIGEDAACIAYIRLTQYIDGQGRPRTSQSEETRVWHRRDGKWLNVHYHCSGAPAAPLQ
UniProt P11802: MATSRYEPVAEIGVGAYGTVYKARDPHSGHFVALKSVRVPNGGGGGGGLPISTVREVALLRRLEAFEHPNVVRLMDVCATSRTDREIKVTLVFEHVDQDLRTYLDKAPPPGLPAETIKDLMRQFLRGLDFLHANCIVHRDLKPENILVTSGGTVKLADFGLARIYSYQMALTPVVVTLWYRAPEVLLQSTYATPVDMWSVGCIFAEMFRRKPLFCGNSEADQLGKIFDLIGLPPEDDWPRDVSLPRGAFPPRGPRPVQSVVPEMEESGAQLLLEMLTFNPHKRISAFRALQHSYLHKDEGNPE

Columns and labels:
Test in all cases: kinase-Nluc reporter destabilization hit call (1 = scored as downregulated) (binary); higher = compound decreases kinase abundance
Conditions in all cases: K562; 2-18 h
[1] = target: ABL1 (UniProt P00519)
[2] = target: AKT1 (UniProt P31749)
[3] = target: ALK (UniProt Q9UM73)
[4] = target: ARAF (UniProt P10398)
[5] = target: AURKA (UniProt O14965)
[6] = target: AURKB (UniProt Q96GD4)
[7] = target: AURKC (UniProt Q9UQB9)
[8] = target: BLK (UniProt P51451)
[9] = target: BMX (UniProt P51813)
[10] = target: BRAF (UniProt P15056)
[11] = tested on: BRAF_V600E
[12] = target: BTK (UniProt Q06187)
[13] = target: CAMK2A (UniProt Q9UQM7)
[14] = target: CAMK2G (UniProt Q13555)
[15] = target: CDK10 (UniProt Q15131)
[16] = target: CDK2 (UniProt P24941)
[17] = target: CDK3 (UniProt Q00526)
[18] = target: CDK4 (UniProt P11802)
[19] = target: CDK5 (UniProt Q00535)
[20] = target: CDK6 (UniProt Q00534)

Measured: kinase-Nluc reporter destabilization hit call

N#Cc1cccc(-c2c[nH]c3ncnc(N4CCOCC4)c23)c1 (10 µM)
inactive: [1] 0 | [2] 0 | [3] 0 | [4] 0 | [5] 0 | [6] 0 | [7] 0 | [8] 0 | [9] 0 | [10] 0 | [11] 0 | [12] 0 | [13] 0 | [14] 0 | [15] 0 | [16] 0 | [17] 0 | [18] 0 | [19] 0 | [20] 0

CCN1CCN(Cc2ccc(Nc3ncc(F)c(-c4cc(F)c5nc(CO)n(C(C)C)c5c4)n3)nc2)CC1 [Abemaciclib metabolite M20] (2 µM)
inactive: [1] 0 | [2] 0 | [3] 0 | [4] 0 | [5] 0 | [6] 0 | [7] 0 | [8] 0 | [9] 0 | [10] 0 | [11] 0 | [12] 0 | [13] 0 | [14] 0 | [15] 0 | [16] 0 | [17] 0 | [18] 0 | [19] 0 | [20] 0

CC/C=C\C/C=C\C/C=C\CCCCCCCC(=O)O [α-Linolenic acid] (10 µM)
inactive: [1] 0 | [2] 0 | [3] 0 | [4] 0 | [5] 0 | [6] 0 | [7] 0 | [8] 0 | [9] 0 | [10] 0 | [11] 0 | [12] 0 | [13] 0 | [14] 0 | [15] 0 | [16] 0 | [17] 0 | [18] 0 | [19] 0 | [20] 0

COc1ccc(Cn2cc(C(=O)N=Nc3c(O)[nH]c4c(C)cccc34)nn2)cc1 [MARK4 inhibitor 1] (10 µM)
inactive: [1] 0 | [2] 0 | [3] 0 | [4] 0 | [5] 0 | [6] 0 | [7] 0 | [8] 0 | [9] 0 | [10] 0 | [11] 0 | [12] 0 | [13] 0 | [14] 0 | [15] 0 | [16] 0 | [17] 0 | [18] 0 | [19] 0 | [20] 0

CCn1c(C(=O)N(C2CC2)C2CC2)cc2c3c(ncn3C)c(Nc3cc(C)n(C)n3)nc21 (10 µM)
inactive: [1] 0 | [2] 0 | [3] 0 | [4] 0 | [5] 0 | [6] 0 | [7] 0 | [8] 0 | [9] 0 | [10] 0 | [11] 0 | [12] 0 | [13] 0 | [14] 0 | [15] 0 | [16] 0 | [17] 0 | [18] 0 | [19] 0 | [20] 0

C#CCN(C)C(=O)CCNc1nc(N2CCN(C(=O)C=C)CC2)c2cc(Cl)c(-c3c(O)cccc3F)c(F)c2n1 [ARS-1323-alkyne] (2.5 µM)
inactive: [1] 0 | [2] 0 | [3] 0 | [4] 0 | [5] 0 | [6] 0 | [7] 0 | [8] 0 | [9] 0 | [10] 0 | [11] 0 | [12] 0 | [13] 0 | [14] 0 | [15] 0 | [16] 0 | [17] 0 | [18] 0 | [19] 0 | [20] 0

COc1ccc(C(=C2C(=O)Nc3ccccc32)c2ccc(OC)cc2)cc1 (10 µM)
inactive: [1] 0 | [2] 0 | [3] 0 | [4] 0 | [5] 0 | [6] 0 | [7] 0 | [8] 0 | [9] 0 | [10] 0 | [11] 0 | [12] 0 | [13] 0 | [14] 0 | [15] 0 | [16] 0 | [17] 0 | [18] 0 | [19] 0 | [20] 0

CCn1c(=O)c(-c2ccc(-c3cncc(C)n3)cc2Cl)cc2cnc(NCCC3CCN(C)CC3)nc21 (10 µM)
inactive: [1] 0 | [2] 0 | [3] 0 | [4] 0 | [5] 0 | [6] 0 | [7] 0 | [8] 0 | [9] 0 | [10] 0 | [11] 0 | [12] 0 | [13] 0 | [14] 0 | [15] 0 | [16] 0 | [17] 0 | [18] 0 | [19] 0 | [20] 0

O=c1cc(O)cc(/C=C/c2ccc(O)c(O)c2)o1 [Hispidin] (10 µM)
inactive: [1] 0 | [2] 0 | [3] 0 | [4] 0 | [5] 0 | [6] 0 | [7] 0 | [8] 0 | [9] 0 | [10] 0 | [11] 0 | [12] 0 | [13] 0 | [14] 0 | [15] 0 | [16] 0 | [17] 0 | [18] 0 | [19] 0 | [20] 0

Cn1cnc(-c2cc3nccc(Oc4ccc(NC(=S)NC(=O)Cc5ccccc5)cc4F)c3s2)c1 [MGCD-265 analog] (10 µM)
inactive: [1] 0 | [2] 0 | [3] 0 | [4] 0 | [5] 0 | [6] 0 | [7] 0 | [8] 0 | [9] 0 | [10] 0 | [11] 0 | [12] 0 | [13] 0 | [14] 0 | [15] 0 | [16] 0 | [17] 0 | [18] 0 | [19] 0 | [20] 0

CN(C)CCN(Cc1ccc(Cl)cc1)c1ccccn1 [Chloropyramine hydrochloride] (10 µM)
inactive: [1] 0 | [2] 0 | [3] 0 | [4] 0 | [5] 0 | [6] 0 | [7] 0 | [8] 0 | [9] 0 | [10] 0 | [11] 0 | [12] 0 | [13] 0 | [14] 0 | [15] 0 | [16] 0 | [17] 0 | [18] 0 | [19] 0 | [20] 0

An excerpt from above in order of molecular weight, smallest number first.
O=c1cc(O)cc(/C=C/c2ccc(O)c(O)c2)o1 [Hispidin] (10 µM)
inactive: [1] 0 | [2] 0 | [3] 0 | [4] 0 | [5] 0 | [6] 0 | [7] 0 | [8] 0 | [9] 0 | [10] 0 | [11] 0 | [12] 0 | [13] 0 | [14] 0 | [15] 0 | [16] 0 | [17] 0 | [18] 0 | [19] 0 | [20] 0

CN(C)CCN(Cc1ccc(Cl)cc1)c1ccccn1 [Chloropyramine hydrochloride] (10 µM)
inactive: [1] 0 | [2] 0 | [3] 0 | [4] 0 | [5] 0 | [6] 0 | [7] 0 | [8] 0 | [9] 0 | [10] 0 | [11] 0 | [12] 0 | [13] 0 | [14] 0 | [15] 0 | [16] 0 | [17] 0 | [18] 0 | [19] 0 | [20] 0

Cn1cnc(-c2cc3nccc(Oc4ccc(NC(=S)NC(=O)Cc5ccccc5)cc4F)c3s2)c1 [MGCD-265 analog] (10 µM)
inactive: [1] 0 | [2] 0 | [3] 0 | [4] 0 | [5] 0 | [6] 0 | [7] 0 | [8] 0 | [9] 0 | [10] 0 | [11] 0 | [12] 0 | [13] 0 | [14] 0 | [15] 0 | [16] 0 | [17] 0 | [18] 0 | [19] 0 | [20] 0

Going on with the list.

Cc1noc(C)c1-c1ccc(-c2cc(C(N)=O)c(NC(N)=O)s2)c(O[C@H]2CCNC2)c1 (10 µM)
inactive: [1] 0 | [2] 0 | [3] 0 | [4] 0 | [5] 0 | [6] 0 | [7] 0 | [8] 0 | [9] 0 | [10] 0 | [11] 0 | [12] 0 | [13] 0 | [14] 0 | [15] 0 | [16] 0 | [17] 0 | [18] 0 | [19] 0 | [20] 0

CC(=O)c1c(C)c2cnc(Nc3ccc(N4CCN(CCCCNC(=O)COc5cccc6c5C(=O)N(C5CCC(=O)NC5=O)C6=O)CC4)cn3)nc2n(C2CCCC2)c1=O (stereo not given) (10 µM)
inactive: [1] 0 | [2] 0 | [3] 0 | [4] 0 | [5] 0 | [6] 0 | [7] 0 | [8] 0 | [9] 0 | [10] 0 | [11] 0 | [12] 0 | [13] 0 | [14] 0 | [15] 0 | [16] 0 | [17] 0 | [18] 0 | [19] 0 | [20] 0

CCc1cc(O)c(F)cc1-c1ccc2c(-c3nc4c([nH]3)CN(C3CCN(C)CC3)CC4)n[nH]c2c1 [JAK-IN-5 (hydrochloride)] (2 µM)
inactive: [1] 0 | [2] 0 | [3] 0 | [4] 0 | [5] 0 | [6] 0 | [7] 0 | [8] 0 | [9] 0 | [10] 0 | [11] 0 | [12] 0 | [13] 0 | [14] 0 | [15] 0 | [16] 0 | [17] 0 | [18] 0 | [19] 0 | [20] 0

CC(C)c1cnc(-c2cc(Cl)ccc2F)cc1Nc1ccncc1C(=O)NC(CO)CO (2.5 µM)
inactive: [1] 0 | [2] 0 | [3] 0 | [4] 0 | [5] 0 | [6] 0 | [7] 0 | [8] 0 | [9] 0 | [10] 0 | [11] 0 | [12] 0 | [13] 0 | [14] 0 | [15] 0 | [16] 0 | [17] 0 | [18] 0 | [19] 0 | [20] 0

C=CC(=O)Nc1cccc(C)c1Nc1ncc2cc(-c3c(Cl)c(OC)cc(OC)c3Cl)ccc2n1 (2.5 µM)
inactive: [1] 0 | [2] 0 | [3] 0 | [4] 0 | [5] 0 | [6] 0 | [7] 0 | [8] 0 | [9] 0 | [10] 0 | [11] 0 | [12] 0 | [13] 0 | [14] 0 | [15] 0 | [16] 0 | [17] 0 | [18] 0 | [19] 0 | [20] 0

O=C(Nc1cccnc1)c1cc(C(=O)c2c(F)cccc2Br)c[nH]1 (10 µM)
inactive: [1] 0 | [2] 0 | [3] 0 | [4] 0 | [5] 0 | [6] 0 | [7] 0 | [8] 0 | [9] 0 | [10] 0 | [11] 0 | [12] 0 | [13] 0 | [14] 0 | [15] 0 | [16] 0 | [17] 0 | [18] 0 | [19] 0 | [20] 0
